Taken from: PubChem BioAssay AID504786 (Drosophila RNAi Screening Center, 2011)
Aim: 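Positive regulators of HIF-driven reporter output in Drosophila cells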 (primary screen). System: Drosophila S2 cells with a stable HIF luciferase reporter. Knock-down reagent: long dsRNA against Drosophila genes, about 0.2 µg dsRNA per well of a 384-well plate. Time to read-out: three days of knock-down, then 20 h of DFO before reading. Treatment: desferrioxamine (DFO) at 100 µM, an iron chelator that mimics hypoxia, for 20 h. Detection: 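HIF reporter luminescence in cells given 100 µM DFO for 20 h, using the mouse ldh-a hypoxia-response element, scored as per-plate z-scores; higher means greater loss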. Scale: z-score: higher = stronger loss of HIF reporter signal.
The screen tested about 21,000 reagents; shown is an unselected part of those with a known target gene and a result. 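Primary screen; positive scores mean lost reporter signal, so the sign may be inverted from the usual convention.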 Names joined by + are all predicted targets of the reagent. Further read-outs or replicates are left out here.

z-score, replicate 1, by target and reagent
CG32249: DRSC08101 -0.3; DRSC08177 -0.4
Obp58b: DRSC04161 -0.4
PGRP-LC: DRSC08980 -0.1; DRSC10416 -0.3; DRSC10417 -0.4
CG9727: DRSC12585 -0.5
PolD1: DRSC11138 -0.1
PNKP: DRSC16512 -0.3
CG2260: DRSC18223 0.2
Cdk5: DRSC07359 -0.2
CG5726: DRSC06946 -0.3
insc: DRSC04695 -0.3
dbo: DRSC11339 -0.2
Cep135: DRSC09345 -0.5; DRSC10244 -0.3
CG11975: DRSC14452 -0.3
Dhc93AB: DRSC16644 -0.1
Mulk: DRSC02658 -0.1
CG18418: DRSC08535 -0.4
CG2641: DRSC15441 -0.1
Su(fu): DRSC16871 -0.3
Spn75F: DRSC09589 -0.2
CG42788: DRSC15330 -0.5; DRSC16139 -0.2; DRSC16152 -0.2
CG17159 + CG17162: DRSC20899 -0.3; DRSC20900 -0.4
Mco1: DRSC02720 -0.3
CG4042: DRSC11751 -0.3
gogo: DRSC10070 -0.2; DRSC10071 -0.2
laza: DRSC11661 -0.3
Cpr50Cb: DRSC06975 -0.3
dgrn: DRSC12154 -0.3
CG8578: DRSC20114 -0.3
CG1636: DRSC18111 -0.2
Rpe: DRSC06407 -0.3
CG16989: DRSC18535 -0.2
CG11843: DRSC14401 -0.4
CG33791 + CG18170: DRSC08523 -0.4; DRSC08601 -0.3
kibra: DRSC14533 -0.8; DRSC16257 3.6
GCC88: DRSC14264 -0.3
CG14797: DRSC17955 -0.3
PolZ2: DRSC12325 -0.3
Coprox: DRSC01996 0.8
Obp83ef: DRSC12268 -0.3
Npc1b: DRSC20488 -0.2
CG15080: DRSC06511 0.1
CG8072: DRSC10960 -0.1
pn: DRSC18822 -0.2
Kdm4A: DRSC06586 -0.4
tn: DRSC05768 -0.2; DRSC06532 -0.2
CG9467: DRSC16498 -0.3
CG5323: DRSC06929 -0.2
p130CAS + Dic61B: DRSC08588 -0.2
peo: DRSC05995 -0.4
tzn: DRSC11755 0
CycB: DRSC04605 0.1
CG7600: DRSC09681 -0.2
twy: DRSC10562 -0.3
Gdap2: DRSC06789 -0.4; DRSC06790 -0.3
CG7016: DRSC16174 -0.4
CG13144: DRSC02241 -0.3
RhoGAP68F: DRSC10717 -0.2
prom: DRSC04684 -0.1
CG8586: DRSC07218 -0.3
CG7881: DRSC04898 -0.2
CG11594: DRSC08207 -0.4
CG11035: DRSC14287 -0.4
MED28: DRSC15721 1.1
CG11356: DRSC19401 -0.3
CG31321: DRSC13028 0.5
CG6426: DRSC06985 -0.2
CG8641: DRSC11028 -0.4
CG1835: DRSC20560 -0.3
Hsp110: DRSC11186 0.3
Mfe2: DRSC19869 -0.3
CG5697: DRSC15858 0.4

6 entries from above in another layout.
target | DRSC id | z-score, replicate 1
kibra | DRSC16257 | 3.6
GCC88 | DRSC14264 | -0.3
CG14797 | DRSC17955 | -0.3
PolZ2 | DRSC12325 | -0.3
Coprox | DRSC01996 | 0.8
Obp83ef | DRSC12268 | -0.3
